PubChem BioAssay AID1259424 – University of Nebraska Medical Center, 2018

Test: 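Rank knockdowns across the genome by resemblance to the KSR1 depletion profile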 (primary screen)
System: human HCT116 colon cancer cells
Reagents: siRNA pool against human genes, 50 nM
Read-out: 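Six signature mRNAs by branched-DNA multiplex assay, scaled to two housekeeping genes and non-targeting median, log2; matched to mean KSR1 knockdown profile by Pearson correlation and euclidean distance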
Scale: mean correlation with KSR1 profile: higher = expression change more like KSR1 knockdown
In all, the deposit lists about 14,000 reagents; this is a part drawn at random. 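Higher correlation or smaller distance means closer resemblance to KSR1 loss; control wells, including KSR1 knockdowns, recur on many plates.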 Reagents against one gene are numbered here. Further read-outs or replicates are left out here. The record does not give: the time to read-out.

Gene	reagent	mean correlation with KSR1 profile
COX7A2	1	-0.763
MATN3	1	-0.181
DLEU1	1	-0.687
KCNIP1	1	-0.14
CLK4	1	0.597
TENM4	1	-0.615
LAMB1	1	0.294
DBP	1	0.562
C14orf119	1	-0.644
ABCB10	1	-0.63
ZNF589	1	0.38
SLN	1	-0.652
TMEM25	1	0.757
FBXW10	1	-0.668
CLDN2	1	0.153
STAT2	1	0.637
NIFK	1	0.373
IGFLR1	1	-0.155
MECOM	1	0.617
MECOM	2	0.267

2 entries from above, ordered by “mean correlation with KSR1 profile”, high to low.
Gene	reagent	mean correlation with KSR1 profile
MECOM	1	0.617
IGFLR1	1	-0.155
